Among the data in PubChem BioAssay AID248 (DTP/NCI, 2004) are survivor count and T/C values, retold here.

The list is a part of this screen's results and no random one: it gathers tests that were run many times, whatever their T/C, doses with no T/C, and many T/C values between a quarter and a half above the control. Other doses and runs of a compound stand elsewhere. T/C: endpoint of the treated group in % of that of the vehicle group. Some doses have a count of surviving animals in place of a T/C: the source holds a T/C of zero for them, seemingly a mark for toxic or unscored doses. Some doses without a T/C left all or most animals alive at the check, yet need not have been tolerated: survival well below the control is almost never listed, so the zero probably covers shortened survival too. Counts of survivors are from the toxicity check (mostly the fifth day) where no day follows; animals may have died later. Schedule codes are those of the source, taken here to give the interval after Q, in days (D) or hours (H), and the number of doses after X. Some entries were tested several times; their values stand side by side, smallest first. Where survival is the endpoint, this PubChem deposit counts one and a half times the control or more as active, and values a quarter to a half above the control carry no call in these data; other NCI protocols may use other cut-offs.

This assay relates to L1210 leukemia ip in BDF1 mice, survival T/C. Description: NCI In Vivo Anticancer Drug Screen. Data for tumor model L1210 Leukemia (intraperitoneal) in B6D2F1 (BDF1) mice. The note with it: higher T/C = longer survival.
The mark [1] stands for this setting: T/C endpoint: mean survival time, dose: 100.0 mg/kg/injection, schedule: Q01DX009 (ip), vehicle: Klucel (hydroxypropylcellulose) (HPC).
Where [2] appears, read: T/C endpoint: mean survival time, dose: 400.0 mg/kg/injection, schedule: Q01DX009 (ip), vehicle: Klucel (hydroxypropylcellulose) (HPC).
Setting [3] is: T/C endpoint: mean survival time, dose: 100.0 mg/kg/injection, schedule: Q04DX003 (ip), vehicle: Klucel (hydroxypropylcellulose) (HPC).
[4] abbreviates: T/C endpoint: mean survival time, dose: 200.0 mg/kg/injection, schedule: Q04DX003 (ip), vehicle: Klucel (hydroxypropylcellulose) (HPC).
Setting [5] is: T/C endpoint: mean survival time, dose: 400.0 mg/kg/injection, schedule: Q04DX003 (ip), vehicle: Klucel (hydroxypropylcellulose) (HPC).

With `CCC/C(C)=N/Nc1ccccn1`, the survivor count runs as follows: (T/C endpoint: mean survival time, dose: 100.0 mg/kg/injection, schedule: Q01DX009 (ip), vehicle: acetone) 0 of 6; (T/C endpoint: mean survival time, dose: 200.0 mg/kg/injection, schedule: Q04DX003 (ip), vehicle: acetone) 5 of 6; (T/C endpoint: mean survival time, dose: 400.0 mg/kg/injection, schedule: Q01DX001 (ip), vehicle: acetone) 0 of 6.
With `CC[C@H]1CN2CCc3cc(OC)c(OC)cc3[C@@H]2C[C@@H]1C[C@H]1NCCc2c1[nH]c1ccc(OC)cc21`, the T/C by setting is: (T/C endpoint: mean survival time, dose: 8.0 mg/kg/injection, schedule: Q01DX005 (ip), vehicle: saline) 126 % of control; (T/C endpoint: mean survival time, dose: 8.0 mg/kg/injection, schedule: Q01DX009 (ip), vehicle: saline) 125 % of control; (T/C endpoint: mean survival time, dose: 16.0 mg/kg/injection, schedule: Q01DX005 (ip), vehicle: saline) 149 % of control; (T/C endpoint: median survival time, dose: 32.0 mg/kg/injection, schedule: Q04DX003 (ip), vehicle: saline + alcohol) 129 % of control. The survivor count runs as follows: (T/C endpoint: mean survival time, dose: 32.0 mg/kg/injection, schedule: Q01DX005 (ip), vehicle: saline) 5 of 10; (T/C endpoint: mean survival time, dose: 32.0 mg/kg/injection, schedule: Q01DX009 (ip), vehicle: saline) 4 of 10; (T/C endpoint: mean survival time, dose: 64.0 mg/kg/injection, schedule: Q04DX003 (ip), vehicle: saline) 3 of 10.
For `O=C1C(O)=C(c2ccccc2)C(=O)C(O)=C1c1ccccc1`, the survivor count runs as follows: under setting [1], 2 of 6 and 2 of 3; (T/C endpoint: mean survival time, dose: 200.0 mg/kg/injection, schedule: Q01DX009 (ip), vehicle: Klucel (hydroxypropylcellulose) (HPC)) 0 of 3; under setting [2], 0 of 3.
For `OCCOc1ccc(Cl)cc1Cl`, the survivor count (T/C endpoint: mean survival time, dose: 400.0 mg/kg/injection, schedule: Q01DX001 (ip), vehicle: other) was 2 of 4.
In the case of `O=C(Cc1ccccn1)NCCc1ccccc1`, the survivor count (T/C endpoint: mean survival time, dose: 300.0 mg/kg/injection, schedule: Q01DX009 (ip), vehicle: saline) was 2 of 6.
Take `Nc1nc(N)c2nc(CNc3ccc(C(=O)NC(CCCCC(=O)O)C(=O)O)cc3)cnc2n1` (stereo unspecified): the T/C reads like this: (T/C endpoint: mean survival time, dose: 9.0 mg/kg/injection, schedule: Q01DX009 (ip), vehicle: sodium bicarbonate) 134 % of control; (T/C endpoint: mean survival time, dose: 13.0 mg/kg/injection, schedule: Q01DX009 (ip), vehicle: sodium bicarbonate) 134 % of control; (T/C endpoint: mean survival time, dose: 20.0 mg/kg/injection, schedule: Q01DX009 (ip), vehicle: sodium bicarbonate) 141 % of control; (T/C endpoint: mean survival time, dose: 30.0 mg/kg/injection, schedule: Q01DX009 (ip), vehicle: sodium bicarbonate) 141 % of control; (T/C endpoint: mean survival time, dose: 40.0 mg/kg/injection, schedule: Q01DX009 (ip), vehicle: sodium bicarbonate) 130 % of control. In addition, under “T/C endpoint: mean survival time, dose: 80.0 mg/kg/injection, schedule: Q01DX009 (ip), vehicle: sodium bicarbonate”, the survivor count is listed as 2 of 3.
Turning to `O=C(O)CCCCOc1ccc([N+](=O)[O-])cc1Cl`, the survivor count under setting [2] is given as 0 of 6.
As for `NCCCC(=S)S`, for the setting “T/C endpoint: mean survival time, dose: 100.0 mg/kg/injection, schedule: Q04DX002 (ip), vehicle: saline”, the survivor count is 3 of 3.
`Clc1ccc2[nH]c(-c3ccccc3)c(-c3ccccc3)c2c1`: under “T/C endpoint: mean survival time, dose: 400.0 mg/kg/injection, schedule: Q01DX009 (ip), vehicle: acetone”, the survivor count is 2 of 6.
Turning to `Cn1c(SCc2ccccc2)nccc1=O`, under setting [2], the survivor count was 1 of 6.
For the compound `CCCCc1c(C)nc(N)nc1N`, the survivor count is recorded as 3 of 6 (T/C endpoint: mean survival time, dose: 50.0 mg/kg/injection, schedule: Q01DX001 (ip), vehicle: saline); 0 of 6 (T/C endpoint: mean survival time, dose: 100.0 mg/kg/injection, schedule: Q01DX001 (ip), vehicle: Klucel (hydroxypropylcellulose) (HPC)); 0 of 6 (T/C endpoint: mean survival time, dose: 100.0 mg/kg/injection, schedule: Q01DX001 (ip), vehicle: saline); 0 of 6 (T/C endpoint: mean survival time, dose: 200.0 mg/kg/injection, schedule: Q01DX001 (ip), vehicle: Klucel (hydroxypropylcellulose) (HPC)); 0 of 6 (T/C endpoint: mean survival time, dose: 400.0 mg/kg/injection, schedule: Q01DX001 (ip), vehicle: Klucel (hydroxypropylcellulose) (HPC)).
Consider `Cc1c(CCl)c(C)c(CCl)c(C)c1CCl`, for which the survivor count is given as 4 of 6 under setting [1], 4 of 6 under setting [3], 5 of 6 under setting [4] and 4 of 6 under setting [5].
As to `C=CCN1C2C=C(c3ccccc3)CC1CCC2` (stereo unspecified), the survivor count runs as follows: (T/C endpoint: mean survival time, dose: 50.0 mg/kg/injection, schedule: Q04DX003 (ip), vehicle: Klucel (hydroxypropylcellulose) (HPC)) 0 of 6; under setting [3], 0 of 6; under setting [4], 0 of 6; under setting [5], 0 of 6.
As for `Cc1cc(=O)[nH]c(O)c1C(=O)/C=C/c1ccccc1`, the survivor count (T/C endpoint: mean survival time, dose: 400.0 mg/kg/injection, schedule: Q01DX001 (ip), vehicle: saline) is 1 of 6.
In the case of `CCOC(=O)CNCc1ccc(Cl)c(Cl)c1`, under “T/C endpoint: mean survival time, dose: 400.0 mg/kg/injection, schedule: Q04DX003 (ip), vehicle: water”, the survivor count was 2 of 6.
In the case of `CC1=CCC=C(CNc2ncnc3nc[nH]c23)C1`, the survivor count (T/C endpoint: mean survival time, dose: 100.0 mg/kg/injection, schedule: Q01DX009 (ip), vehicle: saline with Tween-80) is listed as 6 of 6.
As to `O=C(O)CNCc1cccc(Cl)c1`, where the note is “T/C endpoint: mean survival time, dose: 200.0 mg/kg/injection, schedule: Q01DX009 (ip), vehicle: saline”, the survivor count is listed as 6 of 6.
With `CCC(SC#N)C(CC)SC#N` (stereo unspecified), the survivor count runs as follows: (T/C endpoint: mean survival time, dose: 100.0 mg/kg/injection, schedule: Q04DX002 (ip), vehicle: Klucel (hydroxypropylcellulose) (HPC)) 0 of 3; (T/C endpoint: mean survival time, dose: 200.0 mg/kg/injection, schedule: Q04DX002 (ip), vehicle: Klucel (hydroxypropylcellulose) (HPC)) 0 of 3; (T/C endpoint: mean survival time, dose: 400.0 mg/kg/injection, schedule: Q04DX002 (ip), vehicle: Klucel (hydroxypropylcellulose) (HPC)) 0 of 3.
As for `CCOC(=O)C(C#N)C(C)(C[N+](=O)[O-])C1CC1` (stereo unspecified), the survivor count is 0 of 6 (T/C endpoint: mean survival time, dose: 6.25 mg/kg/injection, schedule: Q04DX003 (ip), vehicle: saline with Tween-80); 0 of 6 (T/C endpoint: mean survival time, dose: 12.5 mg/kg/injection, schedule: Q04DX003 (ip), vehicle: saline with Tween-80); 0 of 6 (T/C endpoint: mean survival time, dose: 25.0 mg/kg/injection, schedule: Q04DX003 (ip), vehicle: saline with Tween-80); 0 of 6 (T/C endpoint: mean survival time, dose: 100.0 mg/kg/injection, schedule: Q04DX003 (ip), vehicle: saline with Tween-80); 0 of 6 (T/C endpoint: mean survival time, dose: 200.0 mg/kg/injection, schedule: Q04DX003 (ip), vehicle: saline with Tween-80); 0 of 6 (T/C endpoint: mean survival time, dose: 400.0 mg/kg/injection, schedule: Q04DX003 (ip), vehicle: saline with Tween-80).
